The list is a part of this screen's results and no random one: it gathers tests that were run many times, whatever their T/C, doses with no T/C, and many T/C values between a quarter and a half above the control. Other doses and runs of a compound stand elsewhere. T/C gives the treated animals as a percentage of the vehicle group. Some entries give survivors of the animals treated and no T/C: the source files T/C as zero there, which appears to mark a toxic dose or a test without result, not a measured value. Survivors were counted at the toxicity check, usually on the fifth day, unless a day is given; later deaths do not show. Schedule codes are those of the source, read here as Q, the interval in days (D) or hours (H), X, the number of doses. Some structures stand for samples that the source files as different forms (salt, stereo form or complex); doses refer to the form tested. For survival time, this PubChem deposit counts one and a half times the control or more as active, and values a quarter to a half above the control carry no call in these data; other NCI protocols may use other cut-offs. Some schedule codes hold Z or #, which are not explained here. Some T/C values carry the count of animals alive at the toxicity check (mostly the fifth day); where none is given, no animal had died by that day. Some entries hold several experiments; the values are given in rising order. Counts like (3×) count equal records among those shown.
System: L1210 leukemia ip in BDF1 mice, survival T/C
Experiment: NCI In Vivo Anticancer Drug Screen. Data for tumor model L1210 Leukemia (intraperitoneal) in B6D2F1 (BDF1) mice
Conditions: T/C endpoint: mean survival time, higher T/C = longer survival

Cc1c2ccncc2c(C)c2c1[nH]c1ccccc12
survivor count (dose: 0.59 mg/kg/injection, schedule: Q03HX016 (ip), vehicle: other): 5 of 8
survivor count (dose: 1.18 mg/kg/injection, schedule: Q03HX016 (ip), vehicle: other): 3 of 8
T/C (dose: 2.0 mg/kg/injection, schedule: Q01DX009 (ip), vehicle: Klucel (hydroxypropylcellulose) (HPC)): 105 (2×), 117, 124, 125, 134 % of control
T/C (dose: 2.0 mg/kg/injection, schedule: Q01DX009 (ip), vehicle: saline with Tween-80, evaluated on day 30): 93, 111 [4 of 6 alive], 115, 121 (2×), 125, 125 [5 of 6 alive], 126, 132, 134, 138 % of control
T/C (dose: 2.0 mg/kg/injection, schedule: Q01DX009 (ip), vehicle: saline with Tween-80, evaluated on day 60): 127 and 132 % of control
T/C (dose: 2.0 mg/kg/injection, schedule: Q01DX009 (ip), vehicle: saline): 132, 142, 145 % of control
T/C (dose: 2.0 mg/kg/injection, schedule: Q01DX009 (ip), vehicle: water): 134 % of control
survivor count (dose: 2.35 mg/kg/injection, schedule: Q03HX008 (ip), vehicle: other): 3 of 8
survivor count (dose: 2.35 mg/kg/injection, schedule: Q03HX016 (ip), vehicle: other): 3 of 8
T/C (dose: 2.5 mg/kg/injection, schedule: Q04DX009 (ip), vehicle: Klucel (hydroxypropylcellulose) (HPC)): 130 % of control
T/C (dose: 2.5 mg/kg/injection, schedule: Q#A X018 (ip), vehicle: other): 129 % of control
T/C (dose: 3.12 mg/kg/injection, schedule: Q01DX009 (ip), vehicle: clinical formulation): 125 % of control
T/C (dose: 4.0 mg/kg/injection, schedule: Q01DX005 (ip), vehicle: other): 130 % of control
T/C (dose: 4.0 mg/kg/injection, schedule: Q01DX009 (ip), vehicle: Klucel (hydroxypropylcellulose) (HPC)): 119, 121 (2×), 124, 126, 130 % of control
T/C (dose: 4.0 mg/kg/injection, schedule: Q01DX009 (ip), vehicle: other, evaluated on day 30): 134 % of control
T/C (dose: 4.0 mg/kg/injection, schedule: Q01DX009 (ip), vehicle: other, evaluated on day 40): 125 % of control
T/C (dose: 4.0 mg/kg/injection, schedule: Q01DX009 (ip), vehicle: saline with Tween-80, evaluated on day 30): 115, 117, 121, 127, 131, 134, 138, 138 [5 of 6 alive], 139, 140, 142, 152 % of control
T/C (dose: 4.0 mg/kg/injection, schedule: Q01DX009 (ip), vehicle: saline with Tween-80, evaluated on day 38): 120 % of control [5 of 6 alive]
T/C (dose: 4.0 mg/kg/injection, schedule: Q01DX009 (ip), vehicle: saline with Tween-80, evaluated on day 60): 137 [9 of 10 alive] and 138 % of control
T/C (dose: 4.0 mg/kg/injection, schedule: Q01DX009 (ip), vehicle: saline, evaluated on day 23): 143 % of control
T/C (dose: 4.0 mg/kg/injection, schedule: Q01DX009 (ip), vehicle: saline, evaluated on day 30): 132 (2×), 140, 148 % of control
T/C (dose: 4.0 mg/kg/injection, schedule: Q01DX009 (ip), vehicle: water): 134 and 135 % of control
T/C (dose: 4.0 mg/kg/injection, schedule: Q03HX008 (ip), vehicle: clinical formulation): 129 % of control
T/C (dose: 4.0 mg/kg/injection, schedule: Q03HX016 (ip), vehicle: clinical formulation): 146 % of control
T/C (dose: 4.0 mg/kg/injection, schedule: Q03HX024 (ip), vehicle: acid diluted with saline): 134 % of control
T/C (dose: 4.68 mg/kg/injection, schedule: Q03HX016 (ip), vehicle: steroid suspending solution): 146 % of control
T/C (dose: 4.69 mg/kg/injection, schedule: Q01DX009 (ip), vehicle: saline with Tween-80): 139 % of control
survivor count (dose: 4.69 mg/kg/injection, schedule: Q03HX016 (ip), vehicle: other): 3 of 8
T/C (dose: 5.0 mg/kg/injection, schedule: Q01DX009 (ip), vehicle: carboxymethylcellulose (CMC)): 127 % of control
T/C (dose: 5.0 mg/kg/injection, schedule: Q03HX008 (ip), vehicle: acid diluted with saline): 131 % of control
T/C (dose: 5.0 mg/kg/injection, schedule: Q04DX009 (ip), vehicle: Klucel (hydroxypropylcellulose) (HPC)): 138 % of control [5 of 6 alive]
T/C (dose: 6.2 mg/kg/injection, schedule: Q01DX Z (ip), vehicle: saline): 130 % of control
T/C (dose: 6.25 mg/kg/injection, schedule: Q01DX009 (ip), vehicle: citric acid): 128 % of control
T/C (dose: 8.0 mg/kg/injection, schedule: Q01DX005 (ip), vehicle: carboxymethylcellulose (CMC)): 135 % of control
T/C (dose: 8.0 mg/kg/injection, schedule: Q01DX005 (ip), vehicle: other): 139 % of control
T/C (dose: 8.0 mg/kg/injection, schedule: Q01DX009 (ip), vehicle: Klucel (hydroxypropylcellulose) (HPC)): 121, 132, 136, 141, 145, 150 % of control
T/C (dose: 8.0 mg/kg/injection, schedule: Q01DX009 (ip), vehicle: clinical formulation): 138 % of control
T/C (dose: 8.0 mg/kg/injection, schedule: Q01DX009 (ip), vehicle: other, evaluated on day 23): 152 % of control
T/C (dose: 8.0 mg/kg/injection, schedule: Q01DX009 (ip), vehicle: other, evaluated on day 30): 144 and 146 % of control
T/C (dose: 8.0 mg/kg/injection, schedule: Q01DX009 (ip), vehicle: other, evaluated on day 40): 142 % of control
T/C (dose: 8.0 mg/kg/injection, schedule: Q01DX009 (ip), vehicle: saline with Tween-80, evaluated on day 30): 115, 123, 130, 143, 146 [5 of 6 alive], 149, 150, 155 (2×), 161, 168, 187 % of control [5 of 6 alive]
T/C (dose: 8.0 mg/kg/injection, schedule: Q01DX009 (ip), vehicle: saline with Tween-80, evaluated on day 38): 91 % of control
T/C (dose: 8.0 mg/kg/injection, schedule: Q01DX009 (ip), vehicle: saline with Tween-80, evaluated on day 60): 148, 153, 282 % of control

Source: PubChem BioAssay AID248 (DTP/NCI, 2004)
